From patent US9260459B2, “4,6-hexadecadiene-2,4-dicarboxylic acid derivative” (Kyowa Hakko Kirin Co., Ltd., priority 2012, dated 2016)
Some of these results come from one statement about several compounds together. At least one compound was matched to its structure with a doubt left.

System: human cervical cancer cell line HeLa
Test: Cell growth inhibition test against human cervical cancer cells
Format: cell-based
Details: 72 hours culture
Procedure: As a cervical cancer cell line, a human cervical cancer cell line HeLa (DS Pharma Biomedical, Cat. No. EC93021013-F0) was used.
The cell line was cultured under conditions of 37° C. and 5% carbon dioxide.
The difference in absorbance in the well in which the cells were not treated with the compound was taken as 100%, and the difference in absorbance in the well in which the cells were not inoculated was taken as 0%, and the cell growth ratio (%) was calculated based on the difference in absorbance in the compound-treated group.

Compound	inhibited the cell growth (compound concentration 200 μmol/L)	inhibited the cell growth (compound concentration 20 μmol/L)
CCC(C)CC(C)CC(C)CC(C)/C=C(C)/C=C(/CC(C)C(=O)OC(C(=O)[O-])C(C(=O)[O-])C(O)C(=O)[O-])C(=O)[O-].[Na+].[Na+].[Na+].[Na+] (centres unmarked) [Compound 4, 1-{(4Z,6E)-4-Carboxy-2,6,8,10,12,14-hexamethylhexadec-4,6-dienoyloxy}-3-hydroxypropane-1,2,3-tricarboxylic Acid 4-sodium Salt]	≥ 90%	
CCC(C)CC(C)CC(C)CC(C)/C=C(C)/C=C(/CC(C)C(=O)OC(C(=O)[O-])C(C(=O)[O-])C(O)C(=O)[O-])C(=O)[O-].[Na+].[Na+].[Na+].[Na+] (centres unmarked) [Compound 3, 1-{(4Z,6E)-4-Carboxy-2,6,8,10,12,14-hexamethylhexadec-4,6-dienoyloxy}-3-hydroxypropane-1,2,3-tricarboxylic Acid 4-sodium Salt]		≥ 90%
